Test results reported in article PMC4991666.
These are yes or no findings as the source states them, for the method shown. For some of these results: Binding seen in cells or lysates may run through a third protein. Some binding calls cover weakened binding; strength is not graded here. For some of these results: Sequences can lack the tags named with a protein.

The chains behind the UniProt entries cited, without tags or fusion partners.
UniProt Q9UBN7: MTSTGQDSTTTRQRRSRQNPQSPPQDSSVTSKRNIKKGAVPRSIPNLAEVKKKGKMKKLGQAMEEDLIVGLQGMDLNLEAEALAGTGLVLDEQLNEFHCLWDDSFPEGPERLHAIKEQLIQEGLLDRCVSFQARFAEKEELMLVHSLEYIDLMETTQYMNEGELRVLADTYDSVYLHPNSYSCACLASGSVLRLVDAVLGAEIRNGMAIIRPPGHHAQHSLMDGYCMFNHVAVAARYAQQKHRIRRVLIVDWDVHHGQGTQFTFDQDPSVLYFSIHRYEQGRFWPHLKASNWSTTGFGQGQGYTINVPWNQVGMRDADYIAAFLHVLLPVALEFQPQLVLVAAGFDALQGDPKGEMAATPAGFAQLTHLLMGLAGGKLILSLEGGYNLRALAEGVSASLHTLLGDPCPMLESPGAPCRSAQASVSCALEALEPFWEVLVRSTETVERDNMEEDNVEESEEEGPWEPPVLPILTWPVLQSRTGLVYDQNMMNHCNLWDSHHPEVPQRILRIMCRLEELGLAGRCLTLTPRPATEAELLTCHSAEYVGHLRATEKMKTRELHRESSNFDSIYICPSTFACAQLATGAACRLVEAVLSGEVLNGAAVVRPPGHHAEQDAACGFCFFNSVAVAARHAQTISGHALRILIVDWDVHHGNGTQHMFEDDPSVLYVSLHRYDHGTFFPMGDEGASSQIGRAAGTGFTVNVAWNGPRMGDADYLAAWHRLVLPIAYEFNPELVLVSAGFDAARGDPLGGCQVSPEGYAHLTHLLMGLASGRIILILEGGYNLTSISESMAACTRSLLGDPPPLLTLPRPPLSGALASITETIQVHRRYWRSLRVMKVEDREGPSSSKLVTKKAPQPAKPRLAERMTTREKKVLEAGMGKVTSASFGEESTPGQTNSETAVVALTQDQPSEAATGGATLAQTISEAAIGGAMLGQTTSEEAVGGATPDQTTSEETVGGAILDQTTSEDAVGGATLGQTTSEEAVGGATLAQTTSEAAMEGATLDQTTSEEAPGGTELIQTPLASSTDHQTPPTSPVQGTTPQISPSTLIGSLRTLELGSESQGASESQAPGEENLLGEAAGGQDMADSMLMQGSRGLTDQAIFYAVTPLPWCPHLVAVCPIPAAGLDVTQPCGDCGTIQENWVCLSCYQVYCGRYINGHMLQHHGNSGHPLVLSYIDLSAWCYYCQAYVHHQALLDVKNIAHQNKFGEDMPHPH
UniProt P53350: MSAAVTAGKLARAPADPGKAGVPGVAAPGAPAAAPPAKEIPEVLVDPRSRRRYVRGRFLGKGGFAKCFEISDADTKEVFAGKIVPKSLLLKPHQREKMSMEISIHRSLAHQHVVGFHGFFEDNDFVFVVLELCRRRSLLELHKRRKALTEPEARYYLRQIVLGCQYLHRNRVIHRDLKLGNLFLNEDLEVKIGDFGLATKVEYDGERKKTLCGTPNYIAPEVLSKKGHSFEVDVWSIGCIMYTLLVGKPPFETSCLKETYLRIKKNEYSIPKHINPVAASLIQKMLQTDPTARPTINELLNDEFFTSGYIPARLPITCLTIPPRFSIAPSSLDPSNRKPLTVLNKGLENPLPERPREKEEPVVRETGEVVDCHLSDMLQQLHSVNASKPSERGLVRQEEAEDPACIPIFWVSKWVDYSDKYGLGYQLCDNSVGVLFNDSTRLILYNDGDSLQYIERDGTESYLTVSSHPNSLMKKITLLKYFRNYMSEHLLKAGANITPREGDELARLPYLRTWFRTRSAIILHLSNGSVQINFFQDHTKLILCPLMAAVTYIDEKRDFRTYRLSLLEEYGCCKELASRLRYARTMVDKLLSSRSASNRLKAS

Legend:
[1] = molecular target: T1, GST:Kin1 (Kin1 fused to GST) (UniProt Q9BQL6); assay: pull-down; in vitro binding assay: recombinant HDAC6 (100 ng) with GST:Kin1 or GST alone in PBS + 0.1% Triton X-100, 30 min, room temperature; both purified
T1 sequence: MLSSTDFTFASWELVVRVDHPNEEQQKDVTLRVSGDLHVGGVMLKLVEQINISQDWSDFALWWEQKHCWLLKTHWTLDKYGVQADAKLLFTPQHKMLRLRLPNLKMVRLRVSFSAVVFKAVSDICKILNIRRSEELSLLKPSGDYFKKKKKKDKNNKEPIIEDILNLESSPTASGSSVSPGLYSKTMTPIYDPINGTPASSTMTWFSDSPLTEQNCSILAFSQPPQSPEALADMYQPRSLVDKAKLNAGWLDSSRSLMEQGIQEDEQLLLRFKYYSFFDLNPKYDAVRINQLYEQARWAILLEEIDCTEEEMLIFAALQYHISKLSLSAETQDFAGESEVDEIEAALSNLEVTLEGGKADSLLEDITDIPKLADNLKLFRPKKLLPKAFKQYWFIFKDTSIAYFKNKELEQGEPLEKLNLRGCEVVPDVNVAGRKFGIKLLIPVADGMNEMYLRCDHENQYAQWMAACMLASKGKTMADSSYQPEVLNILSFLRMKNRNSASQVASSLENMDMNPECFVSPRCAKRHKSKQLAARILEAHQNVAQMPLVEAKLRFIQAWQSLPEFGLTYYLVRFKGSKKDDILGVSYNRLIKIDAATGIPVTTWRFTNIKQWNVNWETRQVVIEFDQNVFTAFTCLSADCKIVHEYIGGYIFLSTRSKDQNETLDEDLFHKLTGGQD

[2] = molecular target: T2, Kin1:GFP (Kindlin 1 fused to GFP) (UniProt Q9BQL6); assay: pull-down; GFP pull down with GFP-Trap agarose beads from 0.25-1 mg lysate (NP40 buffer: 25 mM Tris, 150 mM NaCl, 0.5% NP40, pH 7.6) of cells expressing Kin1:GFP or GFP, room temperature 30-45 min, blots of the bound proteins; also after treatment of the cells with DMSO, tubacin, BI2536 or nocodazole
T2 sequence: T1 sequence

[3] = molecular target: HDAC6 (histone deacetylase 6), endogenous (human (endogenous in MDA-MB-231)) (UniProt Q9UBN7); assay: co-IP; lysate (NP40 buffer) incubated with agarose beads pre-conjugated with anti-HDAC6, anti-al-tub or anti-ac-tub antibody, room temperature 30-45 min; blot for endogenous Kin1

full-length recombinant HDAC6 (from UniProt Q9UBN7 1-1215) (enzyme)
binding [1]: binds

Plk1, endogenous (from UniProt P53350 1-603) (enzyme)
binding [2]: binds

HDAC6 (histone deacetylase 6), endogenous (from UniProt Q9UBN7 1-1215) (enzyme)
binding [2]: binds

B1: Kindlin 1 (Kin1), endogenous (protein, UniProt Q9BQL6 1-677)
chain: T1 sequence
binding [3]: binds
